Measured values taken from article PMC12753576.
No constants are given. Whether binding was seen depends on the method and setting. Binding seen in cells or lysates may run through a third protein. Binding can be weak; no strength is given.

The chains behind the UniProt entries cited, without tags or fusion partners. Where a name states a change or a piece, a line headed by the entry shows the natural chain unless it says otherwise. Residues count along the entry.
UniProt P05106, residues 27-788: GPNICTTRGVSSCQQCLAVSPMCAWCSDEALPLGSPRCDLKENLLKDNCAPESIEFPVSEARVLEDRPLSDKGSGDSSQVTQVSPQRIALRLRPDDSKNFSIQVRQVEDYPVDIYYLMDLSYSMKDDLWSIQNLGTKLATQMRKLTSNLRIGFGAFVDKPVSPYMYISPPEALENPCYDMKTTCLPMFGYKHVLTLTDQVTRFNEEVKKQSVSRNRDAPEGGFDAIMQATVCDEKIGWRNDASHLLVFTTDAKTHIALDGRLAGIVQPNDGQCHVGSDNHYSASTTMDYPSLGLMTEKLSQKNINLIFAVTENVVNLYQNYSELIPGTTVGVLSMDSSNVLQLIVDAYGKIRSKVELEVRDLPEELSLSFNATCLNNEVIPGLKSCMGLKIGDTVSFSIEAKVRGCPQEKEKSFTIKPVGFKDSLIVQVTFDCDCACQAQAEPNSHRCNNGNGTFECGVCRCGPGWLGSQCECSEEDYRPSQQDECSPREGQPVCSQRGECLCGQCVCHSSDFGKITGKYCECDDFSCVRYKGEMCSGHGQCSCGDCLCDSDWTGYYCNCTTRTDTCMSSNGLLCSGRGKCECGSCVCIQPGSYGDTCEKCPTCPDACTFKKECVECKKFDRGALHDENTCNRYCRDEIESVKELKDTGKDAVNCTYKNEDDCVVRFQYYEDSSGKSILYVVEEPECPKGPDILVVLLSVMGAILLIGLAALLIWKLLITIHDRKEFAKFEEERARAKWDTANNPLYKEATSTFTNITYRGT
UniProt P01009: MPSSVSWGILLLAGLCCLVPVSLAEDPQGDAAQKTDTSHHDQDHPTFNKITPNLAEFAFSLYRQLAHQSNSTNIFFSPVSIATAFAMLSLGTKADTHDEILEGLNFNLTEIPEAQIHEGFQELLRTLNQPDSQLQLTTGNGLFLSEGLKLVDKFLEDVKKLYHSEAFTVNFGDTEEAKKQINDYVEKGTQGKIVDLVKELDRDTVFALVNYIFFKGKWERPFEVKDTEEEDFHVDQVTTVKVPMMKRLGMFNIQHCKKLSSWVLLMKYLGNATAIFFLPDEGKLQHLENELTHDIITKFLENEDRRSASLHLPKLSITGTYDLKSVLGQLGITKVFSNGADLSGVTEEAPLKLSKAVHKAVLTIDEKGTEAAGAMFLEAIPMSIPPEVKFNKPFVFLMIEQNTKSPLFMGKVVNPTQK

Target: ITGB3-3×FLAG (wild type) (human) (UniProt P05106)
Experiment: co-IP; HCC cell lines co-transfected with wild-type or mutant SERPINA1 and ITGB3 plasmids for 48 h; immunoprecipitation with HA- or FLAG-tag antibodies

| Substance | binding |
| --- | --- |
| SERPINA1 mutant at residue 113 (from UniProt P01009) | binds |
| SERPINA1 mutant at residue 329 (from UniProt P01009) | binds |
| SERPINA1 mutant at residue 328 (from UniProt P01009) | binds |
| SERPINA1 mutant at residue 64 (from UniProt P01009) | binds |
| SERPINA1 mutant at residue 95 (from UniProt P01009) | binds |
| SERPINA1 mutant at residue 334 (from UniProt P01009) | binds |
| SERPINA1 mutant at residue 102 (from UniProt P01009) | binds |
| SERPINA1 mutant at residue 98 (from UniProt P01009) | binds |
